No constants are given. Whether binding was seen depends on the method and setting. In cells and extracts the contact can be indirect. Binding calls can cover weak binding; strength is not graded here.

This assay deals with T1, T-box transcription factor 5 (TBX5), in HEK293T cells for coimmunoprecipitation with SIRT3 (UniProt Q99593).
T1 sequence: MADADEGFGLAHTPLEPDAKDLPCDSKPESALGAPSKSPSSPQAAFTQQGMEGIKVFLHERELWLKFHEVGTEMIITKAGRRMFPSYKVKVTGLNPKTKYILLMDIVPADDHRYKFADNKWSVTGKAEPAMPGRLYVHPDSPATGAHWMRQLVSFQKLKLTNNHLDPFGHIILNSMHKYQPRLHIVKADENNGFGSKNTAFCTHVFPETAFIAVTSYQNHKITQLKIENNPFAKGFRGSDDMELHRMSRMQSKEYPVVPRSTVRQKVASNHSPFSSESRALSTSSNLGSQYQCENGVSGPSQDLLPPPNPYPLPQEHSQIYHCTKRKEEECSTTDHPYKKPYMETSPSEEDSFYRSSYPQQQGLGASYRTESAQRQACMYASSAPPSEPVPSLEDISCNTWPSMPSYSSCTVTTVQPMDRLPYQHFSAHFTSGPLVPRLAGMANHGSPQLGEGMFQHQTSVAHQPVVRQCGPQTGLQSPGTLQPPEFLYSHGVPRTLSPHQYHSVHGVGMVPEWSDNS
Nature of the assay: co-IP; coimmunoprecipitation of SIRT3 and TBX5 in HEK293T cells.

Take “SIRT3, in HEK293T cells for coimmunoprecipitation with TBX5 (enzyme)”: the binding result was “binds”.

The values above are taken from paper PMC9130917.
